Test results: PubChem BioAssay AID2685 (National Center for Advancing Translational Sciences (NCATS), 2010)
“And” between values parts separate entries of the source, which are not always exact repeats. Equal entries are not always repeated. This is one part of the list. Shown are side measurements of this screen, not its main read-out; they come without a call. Most of these compounds were active or inconclusive in the main read-out, so they are no random draw. The note in brackets gives the kind of curve behind each potency; many fits are weak.

Assay: qHTS Assay for Lipid Storage Modulators in Drosophila S3 Cells;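 on cell number change: cells counted by Cell Tracker Red CMTPX staining in the red channel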
Conditions: BODIPY lipid droplet fluorescence, 18-24 h; for cell number change: measured here: cell count max response, cells fed with added oleic acid
In short: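 Laser-scanning cytometry quantifies lipid droplet accumulation (500–530 nm total intensity; droplet/cell object ratio) in oleic acid-fed (400 uM added) Drosophila S3 cells treated with a concentration series. 20 uM Triacsin C defined 100% inhibition.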

[1] = measured here: cell number channel AC50, cells fed with added oleic acid
[2] = measured here: lipid fluorescence (Fed channel) AC50, cells fed with added oleic acid

Row | SMILES | cell number change | AC50 [1] | AC50 [2]
1 | O=C(CSc1nnc(CNC(=O)c2c(F)cccc2Cl)o1)Nc1ccc2c(c1)OCO2 | -4.75% | 0.103 µM [falling, full curve, poor fit] | 0.116 µM [falling, full curve, poor fit]
2 | CCC(C)(C)C1CCC2(CC1)NC(=O)N(CC(=O)NCCc1ccc(OC)c(OC)c1)C2=O (configuration not stated) | -49.8% | 1.3 µM [falling, full curve] | 0.146 µM [falling, full curve]
3 | COc1cc(CNc2ccc3[nH]c(=O)[nH]c3c2)ccc1OCc1c(F)cccc1Cl | 9.86% |  | 
4 | COC(=O)c1ccc(C)c(NS(=O)(=O)c2ccc(C)c([N+](=O)[O-])c2)c1 | -11.6% |  | 
5 | COc1ccc(CN(C)c2ncnc3sccc23)c(OC)c1OC | -5.26% |  | 3.55 µM [falling, single point]
6 | CC(C)(C)/C=N/NC(=O)C1CC1 | 13.5% |  | 18.4 µM [rising, single point]
7 | CCN(CC(=O)NCCN1CCOCC1)S(=O)(=O)c1ccc(F)cc1 | -10.5% |  | 
8 | CCN1CCN(C(=S)NCCOC)CC1 | -12.2% |  | 20.6 µM [falling, single point]
9 | CCCCn1nc(C(=O)N2CCc3ccccc32)c2ccccc2c1=O | -27.3% |  | 2.91 µM [rising, partial curve]
10 | CN(C)c1nc2ccccc2c(N)c1-c1ccccc1 | -15.2% |  | 
11 | CC(C)CCNC(=O)NC(=O)COC(=O)CNC(=O)C1CCCCC1 | -5.87% | 0.00461 µM [rising, full curve, poor fit] | 
12 | COc1cc(CN2CCNC(=O)C2CC(=O)NCCC2=CCCCC2)cc(OC)c1 (configuration not stated) | -10.3% |  | 0.259 µM [falling, partial curve, poor fit]
13 | CCCc1ccc(OCC(O)CN2CCN(CCO)CC2)cc1 (configuration not stated) | -6.35% |  | 
14 | CCn1nc2cc(C(=O)NCCc3cccs3)ccc2c1OC | -1.04% |  | 0.461 µM [falling, full curve, poor fit]
15 | O=C(N/N=C/c1ccoc1)c1ccccc1 | -23.8% |  | 
16 | CN1CCc2c(sc3c2c(NCc2ccco2)nc2nnnn23)C1 | 49.7% | 10.3 µM [rising, partial curve] | 
17 | COc1ccc(C(=O)NCCNc2ccc([N+](=O)[O-])cn2)cc1 | 21.6% |  | 
18 | Cc1cc(-c2cccs2)c(C#N)c(=S)[nH]1 | 5.34% |  | 
19 | CCCCc1nn2c(N)c(/C=C3\C=Nc4ccccc43)c(=O)nc2s1 | 2.61% |  | 
20 | CCC(C)c1ccc(NC(=O)C2CC2)cc1 (configuration not stated) |  | 6.51 µM [rising, single point] | 
21 | COc1ccc(S(=O)(=O)N(C(=O)c2ccco2)c2cc3sc(=O)oc3c3ccccc23)cc1 | -23.2% |  | 29.1 µM [falling, single point]
22 | CCN1CCN(C(=O)c2ccccc2N(Cc2ccccc2)S(=O)(=O)c2ccc(C)cc2)CC1 | -8.29% | 1.03 µM [rising, partial curve, poor fit] | 

Of the compounds above, two have a nitro group on carbon.
Row | SMILES | cell number change | AC50 [1] | AC50 [2]
4 | COC(=O)c1ccc(C)c(NS(=O)(=O)c2ccc(C)c([N+](=O)[O-])c2)c1 | -11.6% |  | 
17 | COc1ccc(C(=O)NCCNc2ccc([N+](=O)[O-])cn2)cc1 | 21.6% |  | 

Continuation:

Row | SMILES | cell number change | AC50 [1] | AC50 [2]
23 | O=C(c1ccco1)N1CCCSC1=Nc1ccccc1 | 2.63% |  | 
24 | COc1ccc(NC(=O)Nc2cccc(C)n2)c(OC)c1 | -9.72% |  | 
25 | CCC1=NN2C(=N)/C(=C\c3ccc(OCCOc4ccccc4OC)cc3)C(=O)N=C2S1 | 21.7% |  | 29.1 µM [rising, single point]
26 | O=C(Nc1cccc(-c2cccc(F)c2)c1)C1CCN(Cc2ccco2)CC1 | 36.3% | 4.61 µM [rising, full curve] | 6.51 µM [rising, single point]
27 | Cc1ccc(CCNS(=O)(=O)c2cc3c(cc2Cl)NC(=O)CO3)cc1 | 1.73% |  | 0.0461 µM [rising, full curve, poor fit]
28 | O=C(COC(=O)/C=C/c1ccccc1)NCCC1=CCCCC1 | 21% |  | 0.13 µM [rising, partial curve, poor fit]
29 | CC1CC2C3CCC4=CC(=O)C=CC4(C)C3(F)C(O)CC2(C)C1(O)C(=O)CO (configuration not stated) | 9.3% | 0.461 µM [rising, partial curve, poor fit] | 0.58 µM [rising, full curve]
30 | O=C(OCc1ccco1)c1ccc(S(=O)(=O)N2CCCCC2)cc1 | -8.09% |  | 
31 | COc1ccc(-n2c(N)c(Br)c(=O)[nH]c2=O)cc1 | -2.91% |  | 0.461 µM [falling, full curve, poor fit]
32 | COc1cccc(-c2ccc3ncnc(NCc4cc(C)cs4)c3c2)c1 | 5.95% and 10.6% | 0.651 µM [falling, single point] | 6.51 µM [rising, partial curve, poor fit] and 29.1 µM [falling, single point]
33 | CCOc1ccccc1N(CC(=O)NCCSc1ccccn1)S(=O)(=O)c1ccc(C)cc1 | -23.1% |  | 
34 | Cc1nnc2c(NCCC(C)C)nc3ccccc3n12 | 20.4% |  | 
35 | CCn1ncc(Br)c1C(=O)Nc1ccc(-c2ccno2)cc1 | 30.1% | 1.3 µM [rising, full curve, poor fit] | 29.1 µM [rising, single point]
36 | CCOC(=O)C1=C(O)CCn2c1nc1ccccc12 |  |  | 4.61 µM [falling, partial curve]
37 | Cc1ccccc1NC(=O)c1ccc2nc(N3CCOCC3)sc2c1 | 8.98% |  | 0.731 µM [rising, full curve]
38 | O=C(NC1=NCCS1)C1CC(=O)N(c2ccc(Cl)cc2)C1 (configuration not stated) | 31.7% |  | 
39 | COc1ccc(-c2sc(Nc3ccccc3)n[n+]2-c2ccc(F)cc2)c(C)c1C | 16.2% |  | 6.51 µM [rising, single point]
40 | Cc1ccc(C)c(S(=O)(=O)N2CCN(C(=O)Cc3c(F)cccc3Cl)CC2)c1 | 91.2% | 9.2 µM [rising, partial curve] | 
41 | O=c1cc(N2CCCCC2)c(-c2ccccc2)nn1Cc1ccc(Cl)cc1Cl | -22.1% |  | 23.1 µM [falling, single point]
42 | CCCc1nn(C)c(C(=O)Nc2cccc3ccccc23)c1Cl | 26.9% |  | 11.6 µM [rising, partial curve, poor fit]
43 | CC(C)(C)c1ccc(-c2noc(-c3ccno3)n2)cc1 | -33% | 29.1 µM [falling, single point] | 29.1 µM [falling, single point]
44 | CCCN(CCC)CCCn1c(=O)[nH]c2ccccc21 | 1.47% |  | 

Looked up by compound from above:
Row | SMILES | cell number change | AC50 [1] | AC50 [2]
31 | COc1ccc(-n2c(N)c(Br)c(=O)[nH]c2=O)cc1 | -2.91% |  | 0.461 µM [falling, full curve, poor fit]
43 | CC(C)(C)c1ccc(-c2noc(-c3ccno3)n2)cc1 | -33% | 29.1 µM [falling, single point] | 29.1 µM [falling, single point]

(cont.)

Row | SMILES | cell number change | AC50 [1] | AC50 [2]
45 | Cc1sc2ncn(CC(=O)NCCCC(=O)Nc3ccc(C(C)C)cc3)c(=O)c2c1C | 59.1% | 25.9 µM [rising, single point] | 
46 | CCN(CC)S(=O)(=O)c1cc(C(=O)OCC(=O)Nc2c(F)cccc2F)ccc1F | -13.8% | 2.31 µM [falling, single point] | 
47 | CCC(=O)NCCc1nc2ccccc2n1CC | -4.41% |  | 6.51 µM [rising, single point]
48 | CCOc1ccc(S(=O)(=O)Nc2ccccc2C(=O)N2CCCC2)cc1 | -25.9% | 0.291 µM [falling, full curve, poor fit] | 4.11 µM [falling, full curve, poor fit]
49 | COc1cc2[nH]c(=S)n(C3CCCC3)c(=O)c2cc1OC | -11.2% |  | 2.91 µM [rising, single point]
50 | COC(=O)CNc1cc(S(=O)(=O)N2CCCCC2)ccc1Oc1ccc(C(=O)OC)cc1 | 29.5% | 0.651 µM [rising, full curve] | 
51 | CC(C)(C)c1ccc(Cn2nnc3c(=O)[nH]c(C4CCCN(C(=O)Cc5cccs5)C4)nc32)cc1 (configuration not stated) | 2.53% |  | 5.17 µM [rising, single point]
52 | O=C(COc1ccc2c(-c3ccccc3)cc(=O)oc2c1)NCCCN1CCOCC1 | 11.6% |  | 29.1 µM [rising, single point]
53 | COc1ccc2nc(NNC(=O)COc3ccccc3)sc2c1 | 15.7% |  | 0.0291 µM [rising, full curve, poor fit]
54 | Cc1ccc(C(=O)NCC(=O)N2CCN(c3ccccc3)CC2)cc1 | -14% |  | 18.4 µM [rising, single point]
55 | CCOCCCN1C(=O)C(=O)N(CC(=O)N2c3ccccc3NC(=O)CC2C)C1=O (configuration not stated) | -17.9% |  | 3.26 µM [rising, single point]
56 | CN=C1S/C(=C\c2ccc(N3CCOCC3)c(F)c2)C(=O)N1C | 53.1% | 1.84 µM [rising, full curve] | 4.11 µM [rising, partial curve]
57 | CC(=O)C1=C(C)OC2(O)c3ccccc3C(=O)C12O (configuration not stated) | 20.4% |  | 
58 | CC(OC(=O)c1ccc2c(=O)n3c(nc2c1)CCC3)C(=O)Nc1ccc(C(N)=O)cc1 (configuration not stated) | -12.3% |  | 
59 | CC(C)CCNC(=O)C(CC(C)C)N(Cc1ccc2c(c1)OCO2)C(=O)c1snc(C(N)=O)c1N (configuration not stated) | -61.2% | 29.1 µM [falling, single point] | 29.1 µM [falling, single point]
60 | O=C(O)CSc1cccc2cccnc12 | -0.664% |  | 5.17 µM [rising, partial curve, poor fit]
61 | Nc1ccc(Br)c[n+]1Cc1cccc2cccnc12 | 16.7% |  | 
62 | Cc1cccc(NC(=S)NNC(=O)c2ccccc2OC(F)F)c1 | 21.2% | 0.231 µM [rising, full curve, poor fit] | 
63 | Cc1cc(NC(=O)c2ccc(C)s2)n(-c2nc3ccccc3[nH]2)n1 | 11.6% | 0.116 µM [rising, full curve, poor fit] | 0.184 µM [rising, full curve, poor fit]
64 | O=C(CSc1ncnc2sccc12)Nc1ccc(S(=O)(=O)N2CCOCC2)cc1 |  |  | 16.4 µM [falling, partial curve]
